These results are taken from the supplement of paper PMC4604168 (melanoma cell lines).

The list shows a part of the results. Repeats are few or missing, and single values can be far off.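 The apoptosis fraction was the count of cleaved-PARP antibody-stained nuclei relative to all DNA-stained nuclei, imaged in 1,536-well plates. Screening doses were set so most cells survived, and baseline and induced cleaved-PARP levels vary greatly across cell lines.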

This assay has as its system CBRC016 (line from a melanoma biopsy). The assay is described as follows: cleaved PARP positive nuclei fraction relative to DMSO control; melanoma cells; higher = more apoptosis. As to conditions: library dose: low library concentration; 72 h.
On to `C[C@]1(O)C[C@@H](c2nc(-c3ccc4ccc(-c5ccccc5)nc4c3)c3c(N)nccn32)C1` + C[C@@H]1CCN(C(=O)CC#N)C[C@@H]1N(C)c1ncnc2[nH]ccc12 [CP690550] (first compound 0.4 µM, partner dose 1 µM), for which the “cleaved PARP positive nuclei fraction” value stood at 54%. Regarding `Cn1sc(=O)n(Cc2ccccc2)c1=O` + NCC(=O)Nc1ccc(-n2nc(C(F)(F)F)cc2-c2ccc3c(ccc4ccccc43)c2)cc1 [OSU03012] (first compound 0.4 µM, partner dose 1 µM), the “cleaved PARP positive nuclei fraction” value turned out to be 328%. In the case of `Cn1sc(=O)n(Cc2ccccc2)c1=O` + COc1cc2ncnc(Nc3ccc(Oc4ccccc4)cc3)c2cc1OC [SrcI1] (first compound 0.4 µM, partner dose 2 µM), the “cleaved PARP positive nuclei fraction” value is 46.1%. `Cn1cnc2c(F)c(Nc3ccc(Br)cc3Cl)c(C(=O)NOCCO)cc21` [selumetinib] + Oc1nc(-c2ccc(C(F)(F)F)cc2)nc2c1CSCC2 [XAV939] (first compound 0.015 µM, partner dose 2 µM): the “cleaved PARP positive nuclei fraction” value was determined as 130%. On to `CCCCCCCCc1ccc(CCC(N)(CO)CO)cc1` [fingolimod] + O=C(CCCCCCC(=O)Nc1ccccc1)NO [vorinostat] (first compound 2 µM, partner dose 0.08 µM), for which the “cleaved PARP positive nuclei fraction” value was determined as 49.5%. Under `NC1(c2ccc(-c3nc4ccn5c(=O)[nH]nc5c4cc3-c3ccccc3)cc2)CCC1` + COc1cc2ncnc(Nc3ccc(Oc4ccccc4)cc3)c2cc1OC [SrcI1] (first compound 0.4 µM, partner dose 2 µM) stands 113%.
